Test results reported in publication PMC9582194, “The effect of helix-inducing constraints and downsizing upon a transcription block survival-derived functional cJun antagonist” (Cell Reports. Physical Science, 2022).
No constants are given. Whether binding was seen depends on the method and setting.

By UniProt entry, the sequences of proteins in these tests, tags left out. Residues count along the entry.
UniProt P05412, residues 252-315: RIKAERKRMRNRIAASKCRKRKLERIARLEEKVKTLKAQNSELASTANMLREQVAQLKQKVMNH

Biological target: cJun (60 amino acid construct encompassing the entire bZIP domain) (UniProt P05412)
Experiment: CD thermal denaturation; peptide (5 μM) with cJun (5 μM); ellipticity at 222 nm, 1°C to 90°C; 20 mM potassium phosphate, 150 mM potassium fluoride, 2 mM TCEP, pH 7.4; two-state fit gives the Tm of the peptide-cJun heterodimer; duplicate experiments; both purified

With MASLEQRAEELARENEELEKEAEELVVE (C-terminal amide (-NH2)) [HW7] as the binder, how does the binding read?
Its binding is “no binding”.
